Measurements as given in publication PMC2669294, “The Spliceosomal Phosphopeptide P140 Controls the Lupus Disease by Interacting with the HSC70 Protein and via a Mechanism Mediated by γδ T Cells” (PLoS ONE, 2009).
These are yes or no findings as the source states them, for the method shown.

Molecular target: Hsp70 (inducible Hsp70/Hsp72)
Assay: SPR; P140 and Hsp70; which of the two was immobilised is not told; both purified

binding: no binding
Binder: RIHMVYSKRSGKPRGYAFIEY (phosphoserine at Ser140 (position 10 of the peptide)) [P140 peptide (U1-70K snRNP protein residues 131-151, phosphorylated on Ser140)]
